Test results reported in US20190367589A1.
Positions count from the first letter of the chain named. No constants are given. Whether binding was seen depends on the method and setting. Some binding calls cover weakened binding; strength is not graded here. Each block holds one binder with its values, some of them ahead of it.

By UniProt entry, the sequences of proteins in these tests, tags left out. Residues count along the entry.
UniProt P78504, residues 34-1067: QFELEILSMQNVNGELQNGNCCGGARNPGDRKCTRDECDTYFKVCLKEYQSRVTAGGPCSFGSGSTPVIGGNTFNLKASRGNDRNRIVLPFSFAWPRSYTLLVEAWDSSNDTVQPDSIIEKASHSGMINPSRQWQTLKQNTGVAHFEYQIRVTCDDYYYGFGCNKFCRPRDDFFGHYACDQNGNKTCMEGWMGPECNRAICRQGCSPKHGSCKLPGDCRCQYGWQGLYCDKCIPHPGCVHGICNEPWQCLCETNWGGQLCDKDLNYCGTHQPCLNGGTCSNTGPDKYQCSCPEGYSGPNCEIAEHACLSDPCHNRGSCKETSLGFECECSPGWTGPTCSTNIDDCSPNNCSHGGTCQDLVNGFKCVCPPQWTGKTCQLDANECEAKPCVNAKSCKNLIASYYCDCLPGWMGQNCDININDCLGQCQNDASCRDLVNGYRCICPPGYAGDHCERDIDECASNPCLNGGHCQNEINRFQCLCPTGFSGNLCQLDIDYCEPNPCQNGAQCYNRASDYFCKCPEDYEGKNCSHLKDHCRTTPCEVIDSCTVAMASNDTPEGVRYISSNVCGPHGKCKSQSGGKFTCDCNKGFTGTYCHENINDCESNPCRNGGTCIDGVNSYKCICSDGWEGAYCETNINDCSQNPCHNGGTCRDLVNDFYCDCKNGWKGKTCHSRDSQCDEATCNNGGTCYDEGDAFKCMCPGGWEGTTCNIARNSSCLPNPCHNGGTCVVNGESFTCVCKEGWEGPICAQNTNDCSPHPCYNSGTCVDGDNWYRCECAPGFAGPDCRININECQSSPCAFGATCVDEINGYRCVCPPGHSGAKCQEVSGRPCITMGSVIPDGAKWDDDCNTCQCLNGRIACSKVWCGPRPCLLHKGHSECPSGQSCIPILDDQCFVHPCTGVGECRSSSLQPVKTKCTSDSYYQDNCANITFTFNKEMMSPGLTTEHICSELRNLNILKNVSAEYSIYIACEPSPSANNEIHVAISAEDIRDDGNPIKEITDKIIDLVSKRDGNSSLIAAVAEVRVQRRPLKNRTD
UniProt Q9Y219, residues 27-1080: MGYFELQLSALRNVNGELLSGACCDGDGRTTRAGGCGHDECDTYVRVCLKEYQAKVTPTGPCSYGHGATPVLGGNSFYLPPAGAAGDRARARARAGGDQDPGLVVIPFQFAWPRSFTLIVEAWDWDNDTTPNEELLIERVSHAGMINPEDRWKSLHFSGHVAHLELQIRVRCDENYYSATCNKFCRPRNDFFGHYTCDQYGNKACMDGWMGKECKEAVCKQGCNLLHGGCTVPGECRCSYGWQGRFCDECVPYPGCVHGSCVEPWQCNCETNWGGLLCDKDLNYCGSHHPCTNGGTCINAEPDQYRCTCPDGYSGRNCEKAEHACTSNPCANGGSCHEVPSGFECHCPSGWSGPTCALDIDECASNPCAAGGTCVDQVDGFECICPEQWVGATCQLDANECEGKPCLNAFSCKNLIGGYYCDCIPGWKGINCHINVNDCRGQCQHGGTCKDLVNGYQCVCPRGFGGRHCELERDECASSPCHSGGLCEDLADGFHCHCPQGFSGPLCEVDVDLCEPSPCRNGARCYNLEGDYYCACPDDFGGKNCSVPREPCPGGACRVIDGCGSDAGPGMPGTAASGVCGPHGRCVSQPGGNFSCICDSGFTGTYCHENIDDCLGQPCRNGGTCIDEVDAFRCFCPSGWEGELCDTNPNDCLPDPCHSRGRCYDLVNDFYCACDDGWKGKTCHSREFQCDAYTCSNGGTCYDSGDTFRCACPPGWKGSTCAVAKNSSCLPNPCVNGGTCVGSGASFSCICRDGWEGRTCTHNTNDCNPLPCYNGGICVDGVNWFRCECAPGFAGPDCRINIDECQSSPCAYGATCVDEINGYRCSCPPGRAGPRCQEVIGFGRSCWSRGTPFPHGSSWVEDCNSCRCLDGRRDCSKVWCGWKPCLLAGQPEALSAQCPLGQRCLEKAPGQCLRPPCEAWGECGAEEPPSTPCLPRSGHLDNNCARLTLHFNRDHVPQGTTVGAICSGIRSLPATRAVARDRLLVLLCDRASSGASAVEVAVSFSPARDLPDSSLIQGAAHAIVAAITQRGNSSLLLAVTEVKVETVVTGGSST
UniProt Q63722, residues 34-1067: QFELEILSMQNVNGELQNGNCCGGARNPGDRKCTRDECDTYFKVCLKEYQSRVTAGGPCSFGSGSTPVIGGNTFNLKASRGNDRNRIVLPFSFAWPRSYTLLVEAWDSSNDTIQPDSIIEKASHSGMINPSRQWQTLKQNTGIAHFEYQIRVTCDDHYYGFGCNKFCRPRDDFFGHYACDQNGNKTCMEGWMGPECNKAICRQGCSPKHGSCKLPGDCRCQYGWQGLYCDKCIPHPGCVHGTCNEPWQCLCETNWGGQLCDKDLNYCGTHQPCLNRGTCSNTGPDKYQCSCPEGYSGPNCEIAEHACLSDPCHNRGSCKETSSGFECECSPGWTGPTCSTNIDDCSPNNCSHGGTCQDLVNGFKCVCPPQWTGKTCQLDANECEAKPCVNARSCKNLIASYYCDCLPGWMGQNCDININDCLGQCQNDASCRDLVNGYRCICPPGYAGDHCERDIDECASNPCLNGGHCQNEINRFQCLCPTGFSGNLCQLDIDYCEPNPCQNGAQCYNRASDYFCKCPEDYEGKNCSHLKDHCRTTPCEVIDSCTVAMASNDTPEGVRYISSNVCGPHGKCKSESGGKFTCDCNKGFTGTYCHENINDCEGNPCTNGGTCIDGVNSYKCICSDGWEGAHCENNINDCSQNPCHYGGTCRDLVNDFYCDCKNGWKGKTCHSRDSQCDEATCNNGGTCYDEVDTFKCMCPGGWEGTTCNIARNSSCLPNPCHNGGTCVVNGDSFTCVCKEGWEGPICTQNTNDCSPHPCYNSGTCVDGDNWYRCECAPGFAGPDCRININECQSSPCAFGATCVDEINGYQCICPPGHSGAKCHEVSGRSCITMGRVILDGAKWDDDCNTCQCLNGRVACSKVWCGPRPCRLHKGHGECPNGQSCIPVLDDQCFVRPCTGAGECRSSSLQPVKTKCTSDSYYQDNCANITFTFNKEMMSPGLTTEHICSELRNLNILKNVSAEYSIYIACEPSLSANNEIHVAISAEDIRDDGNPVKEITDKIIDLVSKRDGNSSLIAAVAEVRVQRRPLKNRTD

Columns and labels:
[1] = target: human Jagged 1-Fc (extracellular domain of human Jagged 1 fused to the Fc portion of human IgG1; R&D Systems Cat#1277-JG-050) (human) (UniProt P78504); experiment: phage display selection on human Jagged 1-Fc
[2] = target: human Jagged 1-Fc (extracellular domain of human Jagged 1 fused to the Fc portion of human IgG1; R&D Systems Cat#1277-JG-050) (human) (UniProt P78504); experiment: competition ELISA: Notch 1-Fc coated, biotinylated Jagged 1-Fc with increasing antibody
[3] = target: human Jagged 2-Fc (R&D Systems Cat #1726-JG-050) (human) (UniProt Q9Y219); experiment: ELISA: Jagged-Fc coated, purified IgG titrated, anti-human IgG (Fab specific)-HRP and TMB, A450
[4] = target: human Jagged 1-Fc (extracellular domain of human Jagged 1 fused to the Fc portion of human IgG1; R&D Systems Cat#1277-JG-050) (human) (UniProt P78504); experiment: as above
[5] = target: human Jagged 1-Fc (extracellular domain of human Jagged 1 fused to the Fc portion of human IgG1; R&D Systems Cat#1277-JG-050) (human) (UniProt P78504); experiment: phage ELISA, ligand coated
[6] = target: human Jagged 1-Fc (extracellular domain of human Jagged 1 fused to the Fc portion of human IgG1; R&D Systems Cat#1277-JG-050) (human) (UniProt P78504); experiment: competition ELISA: human Notch 1-Fc coated, biotinylated human Jagged 1-Fc applied with rising antibody, streptavidin-HRP, A450
[7] = target: rat Jagged 1-Fc (R&D Systems Cat #599-JG-100) (rat) (UniProt Q63722); experiment: phage ELISA, ligand coated

binding [1]: binds
B1: ScFv Jagged 13 (scFv)
scFv: EVQLLESGGGLVQPGGSLRLSCAASGFTFSSYAMSWVRQAPGKGLEWVSSIETQGPTTLYADSVKGRFTISRDNSKNTLYLQMNSLRAEDTAVYYCAKTSSAFDYWGQGTLVTVSSGGGGSGGGGSGGGGSTDIQMTQSPSSLSASVGDRVTITCRASQSISSYLNWYQQKPGKAPKLLIYASSLQSGVPSRFSGSGSGTDFTLTIGSLQPEDFATYYCQQNVATPLTFGQGTKVEIKR

binding [1]: binds
B2: ScFv Jagged 32 (scFv)
scFv: EVQLLESGGGLVQPGGSLRLSCAASGFTFSSYAMSWVRQAPGKGLEWVSSIEQMGWQTYYADSVKGRFTISRDNSKNTLYLQMNSLRAEDTAVYYCAKSAAAFDYWGQGTLVTVSSGGGGSGGGGSGGGGSTDIQMTQSPSSLSASVGDRVTITCRASQSISSYLNWYQQKPGKAPKLLIYAASLQSGVPSRFSGSGSGTDFTLTISSLQPEDFATYYCQQTVVAPLTFGQGTKVEIKR

binding [2]: binds
binding [3]: binds
binding [4]: binds
B4: anti-Jagged 13 IgG (antibody, V domains shown)
VH: EVQLLESGGGLVQPGGSLRLSCAASGFTFSSYAMSWVRQAPGKGLEWVSSIETQGPTTLYADSVKGRFTISRDNSKNTLYLQMNSLRAEDTAVYYCAKTSSAFDYWGQGTLVTVSS
VL: DIQMTQSPSSLSASVGDRVTITCRASQSISSYLNWYQQKPGKAPKLLIYASSLQSGVPSRFSGSGSGTDFTLTIGSLQPEDFATYYCQQNVATPLTFGQGTKVEIKR

binding [5]: binds
B5: 346.39 (Fab, V domains shown)
VH: B4 VH with T53Q, Q54M, P56W, T57Q, L59E, T99S, S100A, S101A
VL: DIQMTQSPSSLSASVGDRVTITCRASQSISSYLNWYQQKPGKAPKLLIYAASSLQSGVPSRFSGSGSGTDFTLTISSLQPEDFATYYCQQSVVAPLTFGQGTKVEIKR

binding [7]: binds
binding [5]: binds
B10: 346.26 (Fab, V domains shown)
VH: EVQLLESGGGLVQPGGSLRLSCAASGFTFSSYAMSWVRQAPGKGLEWVSSIEQMGWQTYYADSVKGRFTISRDNSKNTLYLQMNSLRAEDTAVYYCAKDIGGRSAFDYWGQGTLVTVSS
VL: B5 VL

Further lines, the binder ahead of its results:

B3: ScFv Jagged 2 (scFv)
scFv: EVQLLESGGGLVQPGGSLRLSCAASGFTFSSYAMSWVRQAPGKGLEWVSAIAELGALTQYADSVKGRFTISRDNSKNTLYLQMNSLRAEDTAVYYCARAHTSFDYWGQGTLVTVSSGGGGSGGGGSGGGGSTDIQMTQSPSSLSASVGDRVTITCRASQSISSYLNWYQQKPGKAPKLLIYKASTLSGVPSRFSGSGSGTDFTLTISSLQPEDFATYYCQQAMDQPPTFGQGTKVEIKR
binding [1]: binds

B6: anti-Jagged 32 IgG (antibody, V domains shown)
VH: B4 VH with T53Q, Q54M, P56W, T57Q, L59Y, T99S, S100A, S101A
VL: B4 VL with S51A, G75S, N90T, A92V, T93A
binding [6]: binds
binding [2]: binds
binding [4]: binds

B7: 346.4 (Fab, V domains shown)
VH: B10 VH
VL: B5 VL
binding [7]: binds
binding [5]: binds

B8: 346.31 (Fab, V domains shown)
VH: B10 VH
VL: B5 VL
binding [7]: binds
binding [5]: binds

B9: 346.21 (Fab, V domains shown)
VH: B10 VH
VL: B5 VL
binding [5]: binds
